These are yes or no findings as the source states them, for the method shown. Some entries that bind do so weakly or less than the wild type. For some assays here: Tags and fused reporters may be left off the sequences shown. Values belong to the molecule of their own block, whether it stands above or below them.
Experiments:
Assay in all cases: SEC; analytical SEC on Superdex 200 10/300 at 4 °C in 25 mM Tris, 150 mM NaCl, 0.5 mM EDTA, 1 mM DTT, pH 7.5; 5 and 10 μM p50/RelAFL and p50/RelARHD (chains co-expressed and co-purified), 10 and 20 μM RelATAD; both purified
[1] = target: N-terminal hexahistidine murine p50 (residues 39-350) (murine) (UniProt P25799)
[2] = target: RelATAD (RelA residues 340-549) with a C-terminal hexahistidine tag (murine) (UniProt Q04207)
[3] = target: T1, p50_(39-350)/RelA_(19-549) heterodimer (murine), P25799; details: remark: other sources report otherwise
T1 chain 1: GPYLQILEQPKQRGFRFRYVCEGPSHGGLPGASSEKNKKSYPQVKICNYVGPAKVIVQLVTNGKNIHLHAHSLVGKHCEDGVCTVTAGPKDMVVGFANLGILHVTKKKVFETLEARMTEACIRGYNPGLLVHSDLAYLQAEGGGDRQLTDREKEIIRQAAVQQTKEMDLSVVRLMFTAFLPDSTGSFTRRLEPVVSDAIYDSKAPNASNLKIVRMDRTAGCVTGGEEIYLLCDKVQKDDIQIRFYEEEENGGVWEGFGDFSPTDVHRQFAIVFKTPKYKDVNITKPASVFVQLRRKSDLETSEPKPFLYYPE
T1 chain 2: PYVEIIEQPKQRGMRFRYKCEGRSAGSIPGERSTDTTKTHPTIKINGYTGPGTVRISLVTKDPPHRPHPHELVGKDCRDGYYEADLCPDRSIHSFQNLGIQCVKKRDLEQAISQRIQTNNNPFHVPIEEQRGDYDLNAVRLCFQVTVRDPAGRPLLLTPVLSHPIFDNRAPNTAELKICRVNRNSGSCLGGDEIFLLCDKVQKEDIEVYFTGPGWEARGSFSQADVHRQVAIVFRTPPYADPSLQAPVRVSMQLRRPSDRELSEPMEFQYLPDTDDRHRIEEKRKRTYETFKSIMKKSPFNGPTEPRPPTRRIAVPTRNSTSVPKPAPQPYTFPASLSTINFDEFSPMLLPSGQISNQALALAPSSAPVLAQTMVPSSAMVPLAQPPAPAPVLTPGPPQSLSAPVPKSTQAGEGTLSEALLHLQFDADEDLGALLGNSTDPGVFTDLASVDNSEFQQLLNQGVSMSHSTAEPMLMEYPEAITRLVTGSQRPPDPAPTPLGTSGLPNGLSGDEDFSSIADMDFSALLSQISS

[4] = target: T2, p50_(39-350)/RelA_(19-321) heterodimer (murine), P25799; details: remark: other sources report otherwise
T2 chain 1: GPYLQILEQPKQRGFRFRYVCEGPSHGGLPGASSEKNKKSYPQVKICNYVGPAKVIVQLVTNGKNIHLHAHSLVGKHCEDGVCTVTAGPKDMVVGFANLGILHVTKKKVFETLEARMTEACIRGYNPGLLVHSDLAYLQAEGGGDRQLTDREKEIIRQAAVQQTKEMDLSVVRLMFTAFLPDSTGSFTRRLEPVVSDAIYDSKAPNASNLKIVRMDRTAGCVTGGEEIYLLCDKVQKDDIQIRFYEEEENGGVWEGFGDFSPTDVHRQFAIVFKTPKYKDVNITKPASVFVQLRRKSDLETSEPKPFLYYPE
T2 chain 2: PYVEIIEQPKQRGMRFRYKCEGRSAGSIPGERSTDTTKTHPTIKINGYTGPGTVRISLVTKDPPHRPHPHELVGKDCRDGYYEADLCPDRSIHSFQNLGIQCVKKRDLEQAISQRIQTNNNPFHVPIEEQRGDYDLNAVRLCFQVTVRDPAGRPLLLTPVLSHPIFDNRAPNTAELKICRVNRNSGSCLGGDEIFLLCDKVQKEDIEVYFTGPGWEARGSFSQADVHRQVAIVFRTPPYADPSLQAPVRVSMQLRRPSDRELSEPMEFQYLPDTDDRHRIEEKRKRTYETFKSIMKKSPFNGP

Molecule: murine RelA residues 19-321 (from UniProt Q04207 19-321) (domain or fragment)
binding [1]: binds

B2: p50_(39-350)/RelA_(19-549) heterodimer, P25799 39-350; Q04207 19-549 (complex)
chain 1: GPYLQILEQPKQRGFRFRYVCEGPSHGGLPGASSEKNKKSYPQVKICNYVGPAKVIVQLVTNGKNIHLHAHSLVGKHCEDGVCTVTAGPKDMVVGFANLGILHVTKKKVFETLEARMTEACIRGYNPGLLVHSDLAYLQAEGGGDRQLTDREKEIIRQAAVQQTKEMDLSVVRLMFTAFLPDSTGSFTRRLEPVVSDAIYDSKAPNASNLKIVRMDRTAGCVTGGEEIYLLCDKVQKDDIQIRFYEEEENGGVWEGFGDFSPTDVHRQFAIVFKTPKYKDVNITKPASVFVQLRRKSDLETSEPKPFLYYPE
chain 2: PYVEIIEQPKQRGMRFRYKCEGRSAGSIPGERSTDTTKTHPTIKINGYTGPGTVRISLVTKDPPHRPHPHELVGKDCRDGYYEADLCPDRSIHSFQNLGIQCVKKRDLEQAISQRIQTNNNPFHVPIEEQRGDYDLNAVRLCFQVTVRDPAGRPLLLTPVLSHPIFDNRAPNTAELKICRVNRNSGSCLGGDEIFLLCDKVQKEDIEVYFTGPGWEARGSFSQADVHRQVAIVFRTPPYADPSLQAPVRVSMQLRRPSDRELSEPMEFQYLPDTDDRHRIEEKRKRTYETFKSIMKKSPFNGPTEPRPPTRRIAVPTRNSTSVPKPAPQPYTFPASLSTINFDEFSPMLLPSGQISNQALALAPSSAPVLAQTMVPSSAMVPLAQPPAPAPVLTPGPPQSLSAPVPKSTQAGEGTLSEALLHLQFDADEDLGALLGNSTDPGVFTDLASVDNSEFQQLLNQGVSMSHSTAEPMLMEYPEAITRLVTGSQRPPDPAPTPLGTSGLPNGLSGDEDFSSIADMDFSALLSQISS
binding [3]: no binding (tested: 10 μM)

More lines, now with the values ahead:

binding [1]: binds
Molecule: murine RelA residues 19 to 549 (from UniProt Q04207 19-549) (domain or fragment)

binding [2]: no binding (tested: 20 μM)
B1: RelATAD (RelA residues 340-549) with a C-terminal hexahistidine tag (domain or fragment, UniProt Q04207 340-549)
chain: SVPKPAPQPYTFPASLSTINFDEFSPMLLPSGQISNQALALAPSSAPVLAQTMVPSSAMVPLAQPPAPAPVLTPGPPQSLSAPVPKSTQAGEGTLSEALLHLQFDADEDLGALLGNSTDPGVFTDLASVDNSEFQQLLNQGVSMSHSTAEPMLMEYPEAITRLVTGSQRPPDPAPTPLGTSGLPNGLSGDEDFSSIADMDFSALLSQISS

binding [4]: no binding (tested: 10 μM)
B3: p50_(39-350)/RelA_(19-321) heterodimer, P25799 39-350; Q04207 19-321 (complex)
chain 1: GPYLQILEQPKQRGFRFRYVCEGPSHGGLPGASSEKNKKSYPQVKICNYVGPAKVIVQLVTNGKNIHLHAHSLVGKHCEDGVCTVTAGPKDMVVGFANLGILHVTKKKVFETLEARMTEACIRGYNPGLLVHSDLAYLQAEGGGDRQLTDREKEIIRQAAVQQTKEMDLSVVRLMFTAFLPDSTGSFTRRLEPVVSDAIYDSKAPNASNLKIVRMDRTAGCVTGGEEIYLLCDKVQKDDIQIRFYEEEENGGVWEGFGDFSPTDVHRQFAIVFKTPKYKDVNITKPASVFVQLRRKSDLETSEPKPFLYYPE
chain 2: PYVEIIEQPKQRGMRFRYKCEGRSAGSIPGERSTDTTKTHPTIKINGYTGPGTVRISLVTKDPPHRPHPHELVGKDCRDGYYEADLCPDRSIHSFQNLGIQCVKKRDLEQAISQRIQTNNNPFHVPIEEQRGDYDLNAVRLCFQVTVRDPAGRPLLLTPVLSHPIFDNRAPNTAELKICRVNRNSGSCLGGDEIFLLCDKVQKEDIEVYFTGPGWEARGSFSQADVHRQVAIVFRTPPYADPSLQAPVRVSMQLRRPSDRELSEPMEFQYLPDTDDRHRIEEKRKRTYETFKSIMKKSPFNGP

Source: PMC9440430, “An intrinsically disordered transcription activation domain increases the DNA binding affinity and reduces the specificity of NFκB p50/RelA”
